Measurements as given in article PMC9456514, “Three-Dimensional Envelope and Subunit Interactions of the Plastid-Encoded RNA Polymerase from Sinapis alba” (International Journal of Molecular Sciences, 2022).

How the values were obtained:
[1] = target: T1, β’ subunit of the plastid-encoded RNA polymerase (SaRpoC1) (Sinapis alba (endogenous in cotyledon chloroplasts)) (UniProt P46819); assay: cross-linking; PEP-enriched fraction from two independent purifications (replicates 2 and 3), a few micrograms, 100 µM DSBU, 1 h at room temperature, HEPES buffer pH 7.8; trypsin; nanoLC-MS/MS; MeroX 2.0, FDR cut-off 1%, minimum score 30; the partners were together in the native complex fraction
T1 sequence: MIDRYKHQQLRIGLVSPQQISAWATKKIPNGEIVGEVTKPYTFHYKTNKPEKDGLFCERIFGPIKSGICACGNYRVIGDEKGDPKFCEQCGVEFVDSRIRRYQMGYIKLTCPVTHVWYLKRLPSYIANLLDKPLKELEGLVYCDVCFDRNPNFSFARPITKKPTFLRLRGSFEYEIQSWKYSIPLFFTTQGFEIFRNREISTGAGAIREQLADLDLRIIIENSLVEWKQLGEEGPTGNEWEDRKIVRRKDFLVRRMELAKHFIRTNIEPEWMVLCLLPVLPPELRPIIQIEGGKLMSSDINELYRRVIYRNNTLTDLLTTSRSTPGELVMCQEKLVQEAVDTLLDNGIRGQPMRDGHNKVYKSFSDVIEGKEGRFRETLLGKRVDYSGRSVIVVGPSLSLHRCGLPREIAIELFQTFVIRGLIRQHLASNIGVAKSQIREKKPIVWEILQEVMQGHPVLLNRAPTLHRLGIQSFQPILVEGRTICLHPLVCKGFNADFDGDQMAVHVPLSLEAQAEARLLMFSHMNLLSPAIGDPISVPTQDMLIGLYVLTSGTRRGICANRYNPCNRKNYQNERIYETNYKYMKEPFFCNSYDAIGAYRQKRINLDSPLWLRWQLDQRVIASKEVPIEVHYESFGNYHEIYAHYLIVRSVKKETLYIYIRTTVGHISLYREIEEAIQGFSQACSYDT

[2] = target: PAP5/PTAC12 (Sinapis alba (endogenous in cotyledon chloroplasts)); assay: as above

PAP5/PTAC12
binding [1]: binds

B1: α subunit of the plastid-encoded RNA polymerase (SaRpoA) (natural protein, UniProt Q9XQN8 1-327, looked up)
chain: MVREKVKVSTRTLQWKCVESRRDSKRLYYGRFILSPLMKGQADTIGIAMARALLGEIEGTCITRAKSENIPHDYSNIVGIQESVHEILMNLNEIVLKSNLYGTRNPFICVQGPGYITARDIILPPSVEIVDNTQHIATLTEPINLCIGLKIERNRGYSLKMSNNFEDRSYPIDAVFMPVQNANHSIHSYGNGNEKQEILFIEIWTNGSLTPKEALYEASRNLINLFIPFLHVEEETFYLENNQHQVTLPVFPFHNKLVNLRQKKKELAFQYIFIDQLELPPRIYNCLKKSNIHTLLDLLNNSQEDLIKMEHFHIEDVKKLLDILEKK
notes: RNA polymerase α subunit, product of the plastid gene rpoA, Sinapis alba
binding [2]: binds

Results are given in words; binding and its absence hold for the method and conditions named. Binding seen in cells or lysates may run through a third protein. Binding can be weak; no strength is given.
